From publication PMC8102003
Results are given in words; binding and its absence hold for the method and conditions named. Binding seen in cells or lysates may run through a third protein. Some binding calls cover weakened binding; strength is not graded here.

Sequences of proteins named here, by UniProt entry; tags and fusion partners are left off. A change or cut given only in a name is not applied to a line headed by its entry. A line that says so, or that is headed by a name, gives the form on record, which may keep a tag or linker. Residues count along the entry.
UniProt Q7Z2W4: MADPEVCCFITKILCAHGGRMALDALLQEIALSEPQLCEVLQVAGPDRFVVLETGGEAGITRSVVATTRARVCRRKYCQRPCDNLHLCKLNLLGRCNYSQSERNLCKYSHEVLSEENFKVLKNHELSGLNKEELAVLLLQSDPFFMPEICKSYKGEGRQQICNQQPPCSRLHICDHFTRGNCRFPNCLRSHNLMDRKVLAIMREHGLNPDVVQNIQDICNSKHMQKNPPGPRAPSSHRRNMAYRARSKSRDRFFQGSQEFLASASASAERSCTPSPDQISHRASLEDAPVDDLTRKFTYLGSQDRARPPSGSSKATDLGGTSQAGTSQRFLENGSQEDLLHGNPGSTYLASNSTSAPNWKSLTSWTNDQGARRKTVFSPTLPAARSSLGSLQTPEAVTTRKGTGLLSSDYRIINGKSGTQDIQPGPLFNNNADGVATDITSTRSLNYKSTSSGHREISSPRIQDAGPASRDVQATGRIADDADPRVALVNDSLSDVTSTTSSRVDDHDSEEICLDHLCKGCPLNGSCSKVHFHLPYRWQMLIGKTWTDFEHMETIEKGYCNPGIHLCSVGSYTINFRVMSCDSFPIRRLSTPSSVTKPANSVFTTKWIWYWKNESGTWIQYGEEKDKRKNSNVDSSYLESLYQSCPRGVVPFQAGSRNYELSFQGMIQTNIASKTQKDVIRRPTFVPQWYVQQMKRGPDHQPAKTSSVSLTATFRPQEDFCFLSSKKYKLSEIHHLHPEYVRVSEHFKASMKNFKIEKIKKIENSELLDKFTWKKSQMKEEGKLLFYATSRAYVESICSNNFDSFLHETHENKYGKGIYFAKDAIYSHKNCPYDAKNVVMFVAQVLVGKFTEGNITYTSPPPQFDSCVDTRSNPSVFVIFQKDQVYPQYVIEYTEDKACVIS
ZAP 254 (truncated human ZAP comprising the N-terminal 254 amino acids), HA-tagged: residues 1-254 of Q7Z2W4
UniProt Q14258: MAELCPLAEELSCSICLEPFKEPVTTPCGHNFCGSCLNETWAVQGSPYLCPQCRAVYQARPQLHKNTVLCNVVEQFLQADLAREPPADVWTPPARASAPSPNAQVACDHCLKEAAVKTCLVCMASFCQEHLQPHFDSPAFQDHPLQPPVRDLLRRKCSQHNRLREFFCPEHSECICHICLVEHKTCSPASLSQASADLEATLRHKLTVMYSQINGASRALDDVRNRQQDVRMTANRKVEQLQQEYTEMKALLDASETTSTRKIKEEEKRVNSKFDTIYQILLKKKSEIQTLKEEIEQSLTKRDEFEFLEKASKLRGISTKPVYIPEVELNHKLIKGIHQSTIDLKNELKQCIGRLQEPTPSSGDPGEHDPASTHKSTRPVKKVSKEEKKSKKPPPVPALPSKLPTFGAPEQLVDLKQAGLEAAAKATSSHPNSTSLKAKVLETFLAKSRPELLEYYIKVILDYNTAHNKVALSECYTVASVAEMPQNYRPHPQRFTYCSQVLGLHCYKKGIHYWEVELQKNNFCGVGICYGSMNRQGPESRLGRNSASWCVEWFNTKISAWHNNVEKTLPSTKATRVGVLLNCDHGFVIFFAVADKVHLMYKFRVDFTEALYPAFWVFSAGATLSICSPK

How the values were obtained:
[1] = biological target: human ZAP-L-HA (full-length long isoform, wild type) (human) (UniProt Q7Z2W4); experiment: co-IP; HEK293T ZAP-/- TRIM25-/- cells co-transfected with HA-tagged ZAP (WT, ΔZnF or RNA^null) and untagged TRIM25 or TRIM25 7KA; anti-HA precipitation; western blot for overexpressed ZAP and TRIM25 (Fig 5G)
[2] = biological target: ZAP RNA^null (human ZAP-L R74A, R75A, K76A)-3xHA (human) (UniProt Q7Z2W4); experiment: as above
[3] = biological target: human ZAP-L-FLAG (long isoform of the zinc finger antiviral protein) (human) (UniProt Q7Z2W4); experiment: co-IP; HEK293T ZAP-/- TRIM25-/- cells co-transfected with ZAP-L-FLAG and TRIM25 (full length or truncated); anti-FLAG antibody on protein G beads, 4°C 2 h; washes in lysis buffer and IP wash buffer (300 mM KCl, 0.5% Igepal); western blot (Fig 5A)
[4] = biological target: human ZAP-L-HA (full-length long isoform, wild type) (human) (UniProt Q7Z2W4); experiment: co-IP; HEK293T ZAP-/- cells transfected with HA-tagged ZAP constructs only; anti-HA antibody on protein G beads, 4°C 2 h; blot for endogenous TRIM25; lysates also treated with RNase A or RNase A/T1 before precipitation (Fig 5C, 5F)
[5] = biological target: ZAP RNA^null (human ZAP-L R74A, R75A, K76A)-3xHA (human) (UniProt Q7Z2W4); experiment: as above
[6] = biological target: ZAP 254 (truncated human ZAP comprising the N-terminal 254 amino acids), HA-tagged (human) (UniProt Q7Z2W4); experiment: as above

Row | binding [1] | binding [2] | binding [3] | binding [4] | binding [5] | binding [6] | Substance
1 | binds | binds | binds | – | – | – | full-length untagged human TRIM25 (from UniProt Q14258 1-630)
2 | – | – | – | binds | binds | binds | endogenous TRIM25 of HEK293T ZAP-/- cells (from UniProt Q14258 1-630)
